Test [1] addresses T1, STELLO1 (STL1), split-ubiquitin fusion in yeast (Arabidopsis thaliana) (UniProt O22943).
T1 sequence: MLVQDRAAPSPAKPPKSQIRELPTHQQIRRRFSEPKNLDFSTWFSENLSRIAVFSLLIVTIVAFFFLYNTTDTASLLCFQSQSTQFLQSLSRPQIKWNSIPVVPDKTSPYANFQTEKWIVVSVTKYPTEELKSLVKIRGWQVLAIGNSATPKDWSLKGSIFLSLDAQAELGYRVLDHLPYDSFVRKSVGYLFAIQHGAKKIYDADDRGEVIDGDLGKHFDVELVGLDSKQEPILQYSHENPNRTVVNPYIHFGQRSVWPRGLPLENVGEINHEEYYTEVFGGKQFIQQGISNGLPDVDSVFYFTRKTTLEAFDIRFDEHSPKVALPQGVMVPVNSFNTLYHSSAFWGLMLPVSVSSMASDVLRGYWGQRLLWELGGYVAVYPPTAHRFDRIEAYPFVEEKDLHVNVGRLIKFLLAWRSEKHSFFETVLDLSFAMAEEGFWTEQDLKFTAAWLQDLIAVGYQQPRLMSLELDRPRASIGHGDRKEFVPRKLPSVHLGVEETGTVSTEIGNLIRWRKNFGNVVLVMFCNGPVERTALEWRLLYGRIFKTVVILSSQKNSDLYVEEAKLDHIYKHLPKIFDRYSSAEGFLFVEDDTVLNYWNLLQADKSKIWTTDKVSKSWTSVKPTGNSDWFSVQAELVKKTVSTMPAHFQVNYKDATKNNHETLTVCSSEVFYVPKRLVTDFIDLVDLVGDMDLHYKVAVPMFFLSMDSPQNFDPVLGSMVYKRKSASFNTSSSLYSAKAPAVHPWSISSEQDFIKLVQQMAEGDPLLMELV
In words: two-hybrid; split-ubiquitin membrane yeast two-hybrid (MbYTH); STLs as bait (pTFB1), NubG preys (pADSL-Nx); yeast strain NYM51; growth of at least 50 spotted colonies after 4 days at 28 °C on SD lacking Leu, Trp, His and Ade with 150 mM 3-ammonium-triazole.

Test [2] addresses T2, STELLO2 (STL2), split-ubiquitin fusion in yeast (Arabidopsis thaliana) (UniProt Q9SCN0).
T2 sequence: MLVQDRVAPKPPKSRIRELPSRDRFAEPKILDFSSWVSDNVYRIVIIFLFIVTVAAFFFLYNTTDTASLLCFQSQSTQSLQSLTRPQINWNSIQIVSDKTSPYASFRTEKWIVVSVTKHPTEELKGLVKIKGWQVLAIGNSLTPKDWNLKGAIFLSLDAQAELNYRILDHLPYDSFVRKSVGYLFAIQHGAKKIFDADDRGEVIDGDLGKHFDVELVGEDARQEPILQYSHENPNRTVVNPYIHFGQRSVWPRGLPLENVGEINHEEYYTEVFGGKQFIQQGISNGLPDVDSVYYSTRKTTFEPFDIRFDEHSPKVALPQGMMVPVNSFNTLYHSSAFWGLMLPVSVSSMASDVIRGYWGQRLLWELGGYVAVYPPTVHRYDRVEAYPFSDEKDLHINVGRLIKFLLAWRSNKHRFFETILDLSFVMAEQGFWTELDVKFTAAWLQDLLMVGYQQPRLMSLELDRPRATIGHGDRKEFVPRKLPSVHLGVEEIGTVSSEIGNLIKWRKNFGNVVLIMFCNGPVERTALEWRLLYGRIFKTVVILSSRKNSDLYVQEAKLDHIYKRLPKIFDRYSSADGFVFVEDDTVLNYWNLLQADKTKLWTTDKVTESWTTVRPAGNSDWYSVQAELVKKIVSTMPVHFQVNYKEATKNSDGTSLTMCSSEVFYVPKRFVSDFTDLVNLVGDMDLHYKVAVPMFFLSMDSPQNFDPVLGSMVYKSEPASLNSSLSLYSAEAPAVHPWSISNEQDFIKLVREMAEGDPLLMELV
The test is described as above.

These are yes or no findings as the source states them, for the method shown. Some results given as binding are weak or reduced against the parent protein; the word gives no strength. Tags and fused reporters may be left off the sequences shown.

B1: Cellulose synthase CesA4, NubG prey fusion in yeast (protein, UniProt Q84JA6 1-1049)
chain: MEPNTMASFDDEHRHSSFSAKICKVCGDEVKDDDNGQTFVACHVCVYPVCKPCYEYERSNGNKCCPQCNTLYKRHKGSPKIAGDEENNGPDDSDDELNIKYRQDGSSIHQNFAYGSENGDYNSKQQWRPNGRAFSSTGSVLGKDFEAERDGYTDAEWKERVDKWKARQEKRGLVTKGEQTNEDKEDDEEEYLDAEARQPLWRKVPISSSKISPYRIVIVLRLVILVFFFRFRILTPAKDAYPLWLISVICEIWFALSWILDQFPKWFPINRETYLDRLSMRFERDGEKNKLAPVDVFVSTVDPLKEPPIITANTILSILAVDYPVNKVSCYVSDDGASMLLFDTLSETSEFARRWVPFCKKYNVEPRAPEFYFSEKIDYLKDKVQTTFVKDRRAMKREYEEFKVRINALVAKAQKKPEEGWVMQDGTPWPGNNTRDHPGMIQVYLGKEGAFDIDGNELPRLVYVSREKRPGYAHHKKAGAMNAMVRVSAVLTNAPFMLNLDCDHYINNSKAIRESMCFLMDPQLGKKLCYVQFPQRFDGIDLNDRYANRNIVFFDINMRGLDGIQGPVYVGTGCVFNRPALYGYEPPVSEKRKKMTCDCWPSWICCCCGGGNRNHKSDSSKKKSGIKSLFSKLKKKTKKKSDDKTMSSYSRKRSSTEAIFDLEDIEEGLEGYDELEKSSLMSQKNFEKRFGMSPVFIASTLMENGGLPEATNTSSLIKEAIHVISCGYEEKTEWGKEIGWIYGSVTEDILTGFRMHCRGWKSVYCMPKRPAFKGSAPINLSDRLHQVLRWALGSVEIFFSRHCPLWYAWGGKLKILERLAYINTIVYPFTSIPLLAYCTIPAVCLLTGKFIIPTINNFASIWFLALFLSIIATAILELRWSGVSINDLWRNEQFWVIGGVSAHLFAVFQGLLKVLFGVDTNFTVTSKGASDEADEFGDLYLFKWTTLLIPPTTLIILNMVGVVAGVSDAINNGYGSWGPLFGKLFFAFWVIVHLYPFLKGLMGRQNRTPTIVVLWSILLASIFSLVWVRIDPFLPKQTGPLLKQCGVDC
As for B1, the binding result in test [1] and in test [2] was “binds” each time.

B2: Cellulose synthase CesA8, NubG prey fusion in yeast (protein, UniProt Q8LPK5 1-985)
chain: MMESRSPICNTCGEEIGVKSNGEFFVACHECSFPICKACLEYEFKEGRRICLRCGNPYDENVFDDVETKTSKTQSIVPTQTNNTSQDSGIHARHISTVSTIDSELNDEYGNPIWKNRVESWKDKKDKKSKKKKKDPKATKAEQHEAQIPTQQHMEDTPPNTESGATDVLSVVIPIPRTKITSYRIVIIMRLIILALFFNYRITHPVDSAYGLWLTSVICEIWFAVSWVLDQFPKWSPINRETYIDRLSARFEREGEQSQLAAVDFFVSTVDPLKEPPLITANTVLSILALDYPVDKVSCYVSDDGAAMLSFESLVETADFARKWVPFCKKYSIEPRAPEFYFSLKIDYLRDKVQPSFVKERRAMKRDYEEFKIRMNALVAKAQKTPEEGWTMQDGTSWPGNNTRDHPGMIQVFLGYSGARDIEGNELPRLVYVSREKRPGYQHHKKAGAENALVRVSAVLTNAPFILNLDCDHYVNNSKAVREAMCFLMDPVVGQDVCFVQFPQRFDGIDKSDRYANRNIVFFDVNMRGLDGIQGPVYVGTGTVFRRQALYGYSPPSKPRILPQSSSSSCCCLTKKKQPQDPSEIYKDAKREELDAAIFNLGDLDNYDEYDRSMLISQTSFEKTFGLSTVFIESTLMENGGVPDSVNPSTLIKEAIHVISCGYEEKTEWGKEIGWIYGSITEDILTGFKMHCRGWRSIYCMPLRPAFKGSAPINLSDRLHQVLRWALGSVEIFLSRHCPLWYGCSGGRLKLLQRLAYINTIVYPFTSLPLVAYCTLPAICLLTGKFIIPTLSNLASMLFLGLFISIILTSVLELRWSGVSIEDLWRNEQFWVIGGVSAHLFAVFQGFLKMLAGLDTNFTVTSKTADDLEFGELYIVKWTTLLIPPTSLLIINLVGVVAGFSDALNKGYEAWGPLFGKVFFAFWVILHLYPFLKGLMGRQNRTPTIVILWSILLASVFSLVWVRINPFVSKTDTTSLSLNCLLIDC
B2: the binding entry in test [1] and in test [2] was “binds” throughout.

B3: Cellulose synthase CesA3, NubG prey fusion in yeast (protein, UniProt Q941L0 1-1065)
chain: MESEGETAGKPMKNIVPQTCQICSDNVGKTVDGDRFVACDICSFPVCRPCYEYERKDGNQSCPQCKTRYKRLKGSPAIPGDKDEDGLADEGTVEFNYPQKEKISERMLGWHLTRGKGEEMGEPQYDKEVSHNHLPRLTSRQDTSGEFSAASPERLSVSSTIAGGKRLPYSSDVNQSPNRRIVDPVGLGNVAWKERVDGWKMKQEKNTGPVSTQAASERGGVDIDASTDILADEALLNDEARQPLSRKVSIPSSRINPYRMVIMLRLVILCLFLHYRITNPVPNAFALWLVSVICEIWFALSWILDQFPKWFPVNRETYLDRLALRYDREGEPSQLAAVDIFVSTVDPLKEPPLVTANTVLSILAVDYPVDKVSCYVSDDGAAMLSFESLAETSEFARKWVPFCKKYSIEPRAPEWYFAAKIDYLKDKVQTSFVKDRRAMKREYEEFKIRINALVSKALKCPEEGWVMQDGTPWPGNNTRDHPGMIQVFLGQNGGLDAEGNELPRLVYVSREKRPGFQHHKKAGAMNALVRVSAVLTNGPFILNLDCDHYINNSKALREAMCFLMDPNLGKQVCYVQFPQRFDGIDKNDRYANRNTVFFDINLRGLDGIQGPVYVGTGCVFNRTALYGYEPPIKVKHKKPSLLSKLCGGSRKKNSKAKKESDKKKSGRHTDSTVPVFNLDDIEEGVEGAGFDDEKALLMSQMSLEKRFGQSAVFVASTLMENGGVPPSATPENLLKEAIHVISCGYEDKSDWGMEIGWIYGSVTEDILTGFKMHARGWRSIYCMPKLPAFKGSAPINLSDRLNQVLRWALGSVEILFSRHCPIWYGYNGRLKFLERFAYVNTTIYPITSIPLLMYCTLPAVCLFTNQFIIPQISNIASIWFLSLFLSIFATGILEMRWSGVGIDEWWRNEQFWVIGGVSAHLFAVFQGILKVLAGIDTNFTVTSKASDEDGDFAELYLFKWTTLLIPPTTLLIVNLVGVVAGVSYAINSGYQSWGPLFGKLFFAFWVIVHLYPFLKGLMGRQNRTPTIVVVWSVLLASIFSLLWVRIDPFTSRVTGPDILECGINC
As for B3, the binding result in test [1] and in test [2] was “binds” in each case.

B4: STELLO1 (STL1), split-ubiquitin fusion in yeast (protein, UniProt O22943 1-771)
chain: MLVQDRAAPSPAKPPKSQIRELPTHQQIRRRFSEPKNLDFSTWFSENLSRIAVFSLLIVTIVAFFFLYNTTDTASLLCFQSQSTQFLQSLSRPQIKWNSIPVVPDKTSPYANFQTEKWIVVSVTKYPTEELKSLVKIRGWQVLAIGNSATPKDWSLKGSIFLSLDAQAELGYRVLDHLPYDSFVRKSVGYLFAIQHGAKKIYDADDRGEVIDGDLGKHFDVELVGLDSKQEPILQYSHENPNRTVVNPYIHFGQRSVWPRGLPLENVGEINHEEYYTEVFGGKQFIQQGISNGLPDVDSVFYFTRKTTLEAFDIRFDEHSPKVALPQGVMVPVNSFNTLYHSSAFWGLMLPVSVSSMASDVLRGYWGQRLLWELGGYVAVYPPTAHRFDRIEAYPFVEEKDLHVNVGRLIKFLLAWRSEKHSFFETVLDLSFAMAEEGFWTEQDLKFTAAWLQDLIAVGYQQPRLMSLELDRPRASIGHGDRKEFVPRKLPSVHLGVEETGTVSTEIGNLIRWRKNFGNVVLVMFCNGPVERTALEWRLLYGRIFKTVVILSSQKNSDLYVEEAKLDHIYKHLPKIFDRYSSAEGFLFVEDDTVLNYWNLLQADKSKIWTTDKVSKSWTSVKPTGNSDWFSVQAELVKKTVSTMPAHFQVNYKDATKNNHETLTVCSSEVFYVPKRLVTDFIDLVDLVGDMDLHYKVAVPMFFLSMDSPQNFDPVLGSMVYKRKSASFNTSSSLYSAKAPAVHPWSISSEQDFIKLVQQMAEGDPLLMELV
On to B4, for which the binding entry in test [1] and in test [2] was “binds” in each case.

The values are drawn from publication PMC4906169.
